In patent publication US20030028002A1:
No constants are given. Whether binding was seen depends on the method and setting. Some entries that bind do so weakly or less than the wild type. Where a sequence is shown, tags or fusion partners need not be part of it.

Amino acid sequences for entries named in this document (tags omitted).
UniProt P25322: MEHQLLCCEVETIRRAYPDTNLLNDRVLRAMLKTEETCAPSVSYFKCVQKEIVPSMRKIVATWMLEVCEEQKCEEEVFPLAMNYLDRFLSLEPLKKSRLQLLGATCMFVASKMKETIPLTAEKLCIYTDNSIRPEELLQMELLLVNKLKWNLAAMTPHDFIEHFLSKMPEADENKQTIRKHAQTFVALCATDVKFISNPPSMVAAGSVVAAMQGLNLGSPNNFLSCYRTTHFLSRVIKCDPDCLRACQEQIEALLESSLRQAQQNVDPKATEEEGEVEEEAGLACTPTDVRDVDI

Target: cyclin D1 (mouse) (UniProt P25322)
Experiment: anti-Flag immunoprecipitation from Sf9 lysates, Western blot for cyclin D1

Row | Binder | binding
1 | Flag-tagged wildtype DMP1 (amino acids 1-761) (protein, not shown: small tags and cut ends) MSTVEEDSDTVTVETVNSVTFTQDTDGNLILHCPQNDPDEVDSEDSTEPPHKRLCLSSEDDQSIDDATPCISVVALPLSENDQSFEVTMTATTEVADDELSEGTVTQIQILQNDQLDEISPLGTEEVSAVSQAWFTTKEDKDSLTNKGHKWKQGMWSKEEIDILMNNIERYLKARGIKDATEIIFEMSKDERKDFYRTIAWGLNRPLFAVYRRVLRMYDDRNHVGKYTPEEIEKLKELRIKHGNDWATIGAALGRSASSVKDRCRLMKDTCNTGKWTEEEEKRLAEVVHELTSTEPGDIVTQGVSWAAVAERVGTRSEKQCRSKWLNYLNWKQSGGTEWTKEDEINLILRIAELDVADENDINWDLLAEGWSSVRSPQWLRSKWWTIKRQIANHKDVSFPVLIKGLKQLHENQKNNPVLLENKSGSGVPNSNCNSSVQHVQIRVARLEDNTAISPSPMAALQIPVQITHVSSTDSPAASADSETITLNSGTLQTFEILPSFPLQPTGTPGTYLLQTSSSQGLPLTLTTNPTLTLAAAAPASPEQIIVHALSPEHLLNTSDNVTVQCHTPRVIIQTVATEDITSSLSQEELTVDSDLHSSDFPEPPDALEADTFPDEIPRPKMTIQPSFNNAHVSKFSDQNSTELMNSVMVRTEEEIADTDLKQEEPPSDLASAYVTEDLESPTIVHQVHQTIDDETILIVPSPHGFIQASDVIDTESVLPLTTLTDPIFQHHQEASNIIGSSLGSPVSEDSKDVEDLVNCH | binds
2 | Flag-tagged DMP1 point mutant M11 (K319E) (protein, not shown: small tags and cut ends) MSTVEEDSDTVTVETVNSVTFTQDTDGNLILHCPQNDPDEVDSEDSTEPPHKRLCLSSEDDQSIDDATPCISVVALPLSENDQSFEVTMTATTEVADDELSEGTVTQIQILQNDQLDEISPLGTEEVSAVSQAWFTTKEDKDSLTNKGHKWKQGMWSKEEIDILMNNIERYLKARGIKDATEIIFEMSKDERKDFYRTIAWGLNRPLFAVYRRVLRMYDDRNHVGKYTPEEIEKLKELRIKHGNDWATIGAALGRSASSVKDRCRLMKDTCNTGKWTEEEEKRLAEVVHELTSTEPGDIVTQGVSWAAVAERVGTRSEEQCRSKWLNYLNWKQSGGTEWTKEDEINLILRIAELDVADENDINWDLLAEGWSSVRSPQWLRSKWWTIKRQIANHKDVSFPVLIKGLKQLHENQKNNPVLLENKSGSGVPNSNCNSSVQHVQIRVARLEDNTAISPSPMAALQIPVQITHVSSTDSPAASADSETITLNSGTLQTFEILPSFPLQPTGTPGTYLLQTSSSQGLPLTLTTNPTLTLAAAAPASPEQIIVHALSPEHLLNTSDNVTVQCHTPRVIIQTVATEDITSSLSQEELTVDSDLHSSDFPEPPDALEADTFPDEIPRPKMTIQPSFNNAHVSKFSDQNSTELMNSVMVRTEEEIADTDLKQEEPPSDLASAYVTEDLESPTIVHQVHQTIDDETILIVPSPHGFIQASDVIDTESVLPLTTLTDPIFQHHQEASNIIGSSLGSPVSEDSKDVEDLVNCH | binds
3 | Flag-tagged DMP1 deletion mutant M2 (amino acids 1-520) (protein, not shown: small tags and cut ends) MSTVEEDSDTVTVETVNSVTFTQDTDGNLILHCPQNDPDEVDSEDSTEPPHKRLCLSSEDDQSIDDATPCISVVALPLSENDQSFEVTMTATTEVADDELSEGTVTQIQILQNDQLDEISPLGTEEVSAVSQAWFTTKEDKDSLTNKGHKWKQGMWSKEEIDILMNNIERYLKARGIKDATEIIFEMSKDERKDFYRTIAWGLNRPLFAVYRRVLRMYDDRNHVGKYTPEEIEKLKELRIKHGNDWATIGAALGRSASSVKDRCRLMKDTCNTGKWTEEEEKRLAEVVHELTSTEPGDIVTQGVSWAAVAERVGTRSEKQCRSKWLNYLNWKQSGGTEWTKEDEINLILRIAELDVADENDINWDLLAEGWSSVRSPQWLRSKWWTIKRQIANHKDVSFPVLIKGLKQLHENQKNNPVLLENKSGSGVPNSNCNSSVQHVQIRVARLEDNTAISPSPMAALQIPVQITHVSSTDSPAASADSETITLNSGTLQTFEILPSFPLQPTGTPGTYLLQTSSSQ | binds
4 | Flag-tagged DMP1 deletion mutant M6 (amino acids 1-86; 170-761) (protein, not shown: small tags and cut ends) MSTVEEDSDTVTVETVNSVTFTQDTDGNLILHCPQNDPDEVDSEDSTEPPHKRLCLSSEDDQSIDDATPCISVVALPLSENDQSFERYLKARGIKDATEIIFEMSKDERKDFYRTIAWGLNRPLFAVYRRVLRMYDDRNHVGKYTPEEIEKLKELRIKHGNDWATIGAALGRSASSVKDRCRLMKDTCNTGKWTEEEEKRLAEVVHELTSTEPGDIVTQGVSWAAVAERVGTRSEKQCRSKWLNYLNWKQSGGTEWTKEDEINLILRIAELDVADENDINWDLLAEGWSSVRSPQWLRSKWWTIKRQIANHKDVSFPVLIKGLKQLHENQKNNPVLLENKSGSGVPNSNCNSSVQHVQIRVARLEDNTAISPSPMAALQIPVQITHVSSTDSPAASADSETITLNSGTLQTFEILPSFPLQPTGTPGTYLLQTSSSQGLPLTLTTNPTLTLAAAAPASPEQIIVHALSPEHLLNTSDNVTVQCHTPRVIIQTVATEDITSSLSQEELTVDSDLHSSDFPEPPDALEADTFPDEIPRPKMTIQPSFNNAHVSKFSDQNSTELMNSVMVRTEEEIADTDLKQEEPPSDLASAYVTEDLESPTIVHQVHQTIDDETILIVPSPHGFIQASDVIDTESVLPLTTLTDPIFQHHQEASNIIGSSLGSPVSEDSKDVEDLVNCH | binds
5 | Flag-tagged DMP1 deletion mutant M7 (amino acids 1-169; 238-761) (protein, not shown: small tags and cut ends) MSTVEEDSDTVTVETVNSVTFTQDTDGNLILHCPQNDPDEVDSEDSTEPPHKRLCLSSEDDQSIDDATPCISVVALPLSENDQSFEVTMTATTEVADDELSEGTVTQIQILQNDQLDEISPLGTEEVSAVSQAWFTTKEDKDSLTNKGHKWKQGMWSKEEIDILMNNIELRIKHGNDWATIGAALGRSASSVKDRCRLMKDTCNTGKWTEEEEKRLAEVVHELTSTEPGDIVTQGVSWAAVAERVGTRSEKQCRSKWLNYLNWKQSGGTEWTKEDEINLILRIAELDVADENDINWDLLAEGWSSVRSPQWLRSKWWTIKRQIANHKDVSFPVLIKGLKQLHENQKNNPVLLENKSGSGVPNSNCNSSVQHVQIRVARLEDNTAISPSPMAALQIPVQITHVSSTDSPAASADSETITLNSGTLQTFEILPSFPLQPTGTPGTYLLQTSSSQGLPLTLTTNPTLTLAAAAPASPEQIIVHALSPEHLLNTSDNVTVQCHTPRVIIQTVATEDITSSLSQEELTVDSDLHSSDFPEPPDALEADTFPDEIPRPKMTIQPSFNNAHVSKFSDQNSTELMNSVMVRTEEEIADTDLKQEEPPSDLASAYVTEDLESPTIVHQVHQTIDDETILIVPSPHGFIQASDVIDTESVLPLTTLTDPIFQHHQEASNIIGSSLGSPVSEDSKDVEDLVNCH | binds

Continued, values first:

Row | binding | Binder
6 | binds | Flag-tagged DMP1 deletion mutant M8 (amino acids 1-237; 381-761) (protein, not shown: small tags and cut ends) MSTVEEDSDTVTVETVNSVTFTQDTDGNLILHCPQNDPDEVDSEDSTEPPHKRLCLSSEDDQSIDDATPCISVVALPLSENDQSFEVTMTATTEVADDELSEGTVTQIQILQNDQLDEISPLGTEEVSAVSQAWFTTKEDKDSLTNKGHKWKQGMWSKEEIDILMNNIERYLKARGIKDATEIIFEMSKDERKDFYRTIAWGLNRPLFAVYRRVLRMYDDRNHVGKYTPEEIEKLKERSKWWTIKRQIANHKDVSFPVLIKGLKQLHENQKNNPVLLENKSGSGVPNSNCNSSVQHVQIRVARLEDNTAISPSPMAALQIPVQITHVSSTDSPAASADSETITLNSGTLQTFEILPSFPLQPTGTPGTYLLQTSSSQGLPLTLTTNPTLTLAAAAPASPEQIIVHALSPEHLLNTSDNVTVQCHTPRVIIQTVATEDITSSLSQEELTVDSDLHSSDFPEPPDALEADTFPDEIPRPKMTIQPSFNNAHVSKFSDQNSTELMNSVMVRTEEEIADTDLKQEEPPSDLASAYVTEDLESPTIVHQVHQTIDDETILIVPSPHGFIQASDVIDTESVLPLTTLTDPIFQHHQEASNIIGSSLGSPVSEDSKDVEDLVNCH
7 | binds | Flag-tagged DMP1 deletion mutant M3 (amino acids 1-458) (protein, not shown: small tags and cut ends) MSTVEEDSDTVTVETVNSVTFTQDTDGNLILHCPQNDPDEVDSEDSTEPPHKRLCLSSEDDQSIDDATPCISVVALPLSENDQSFEVTMTATTEVADDELSEGTVTQIQILQNDQLDEISPLGTEEVSAVSQAWFTTKEDKDSLTNKGHKWKQGMWSKEEIDILMNNIERYLKARGIKDATEIIFEMSKDERKDFYRTIAWGLNRPLFAVYRRVLRMYDDRNHVGKYTPEEIEKLKELRIKHGNDWATIGAALGRSASSVKDRCRLMKDTCNTGKWTEEEEKRLAEVVHELTSTEPGDIVTQGVSWAAVAERVGTRSEKQCRSKWLNYLNWKQSGGTEWTKEDEINLILRIAELDVADENDINWDLLAEGWSSVRSPQWLRSKWWTIKRQIANHKDVSFPVLIKGLKQLHENQKNNPVLLENKSGSGVPNSNCNSSVQHVQIRVARLEDNTAISPSPM
8 | binds | Flag-tagged DMP1 deletion mutant M10 (amino acids 87-458) (protein, not shown: small tags and cut ends) VTMTATTEVADDELSEGTVTQIQILQNDQLDEISPLGTEEVSAVSQAWFTTKEDKDSLTNKGHKWKQGMWSKEEIDILMNNIERYLKARGIKDATEIIFEMSKDERKDFYRTIAWGLNRPLFAVYRRVLRMYDDRNHVGKYTPEEIEKLKELRIKHGNDWATIGAALGRSASSVKDRCRLMKDTCNTGKWTEEEEKRLAEVVHELTSTEPGDIVTQGVSWAAVAERVGTRSEKQCRSKWLNYLNWKQSGGTEWTKEDEINLILRIAELDVADENDINWDLLAEGWSSVRSPQWLRSKWWTIKRQIANHKDVSFPVLIKGLKQLHENQKNNPVLLENKSGSGVPNSNCNSSVQHVQIRVARLEDNTAISPSPM
9 | binds | Flag-tagged DMP1 deletion mutant M1 (amino acids 1-661) (protein, not shown: small tags and cut ends) MSTVEEDSDTVTVETVNSVTFTQDTDGNLILHCPQNDPDEVDSEDSTEPPHKRLCLSSEDDQSIDDATPCISVVALPLSENDQSFEVTMTATTEVADDELSEGTVTQIQILQNDQLDEISPLGTEEVSAVSQAWFTTKEDKDSLTNKGHKWKQGMWSKEEIDILMNNIERYLKARGIKDATEIIFEMSKDERKDFYRTIAWGLNRPLFAVYRRVLRMYDDRNHVGKYTPEEIEKLKELRIKHGNDWATIGAALGRSASSVKDRCRLMKDTCNTGKWTEEEEKRLAEVVHELTSTEPGDIVTQGVSWAAVAERVGTRSEKQCRSKWLNYLNWKQSGGTEWTKEDEINLILRIAELDVADENDINWDLLAEGWSSVRSPQWLRSKWWTIKRQIANHKDVSFPVLIKGLKQLHENQKNNPVLLENKSGSGVPNSNCNSSVQHVQIRVARLEDNTAISPSPMAALQIPVQITHVSSTDSPAASADSETITLNSGTLQTFEILPSFPLQPTGTPGTYLLQTSSSQGLPLTLTTNPTLTLAAAAPASPEQIIVHALSPEHLLNTSDNVTVQCHTPRVIIQTVATEDITSSLSQEELTVDSDLHSSDFPEPPDALEADTFPDEIPRPKMTIQPSFNNAHVSKFSDQNSTELMNSVMVRTEEEIADTDL
10 | binds | Flag-tagged DMP1 deletion mutant M4 (amino acids 1-380) (protein, not shown: small tags and cut ends) MSTVEEDSDTVTVETVNSVTFTQDTDGNLILHCPQNDPDEVDSEDSTEPPHKRLCLSSEDDQSIDDATPCISVVALPLSENDQSFEVTMTATTEVADDELSEGTVTQIQILQNDQLDEISPLGTEEVSAVSQAWFTTKEDKDSLTNKGHKWKQGMWSKEEIDILMNNIERYLKARGIKDATEIIFEMSKDERKDFYRTIAWGLNRPLFAVYRRVLRMYDDRNHVGKYTPEEIEKLKELRIKHGNDWATIGAALGRSASSVKDRCRLMKDTCNTGKWTEEEEKRLAEVVHELTSTEPGDIVTQGVSWAAVAERVGTRSEKQCRSKWLNYLNWKQSGGTEWTKEDEINLILRIAELDVADENDINWDLLAEGWSSVRSPQWL
